According to the supplement of paper PMC12067093, “Discovery and optimisation of a covalent ligand for TRIM25 and its application to targeted protein ubiquitination” (Chemical Science, 2025):
Some of the results follow.

Sequences of proteins named here, by UniProt entry; tags and fusion partners are left off. A change or cut given only in a name is not applied to a line headed by its entry.
UniProt Q96GD0: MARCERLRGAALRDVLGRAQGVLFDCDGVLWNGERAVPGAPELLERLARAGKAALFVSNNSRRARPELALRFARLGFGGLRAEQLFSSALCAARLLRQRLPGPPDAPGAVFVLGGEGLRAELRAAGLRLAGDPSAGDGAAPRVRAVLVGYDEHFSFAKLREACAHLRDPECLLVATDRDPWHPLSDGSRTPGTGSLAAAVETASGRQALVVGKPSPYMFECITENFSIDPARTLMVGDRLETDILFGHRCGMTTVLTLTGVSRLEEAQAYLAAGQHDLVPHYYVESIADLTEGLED
UniProt Q969N2: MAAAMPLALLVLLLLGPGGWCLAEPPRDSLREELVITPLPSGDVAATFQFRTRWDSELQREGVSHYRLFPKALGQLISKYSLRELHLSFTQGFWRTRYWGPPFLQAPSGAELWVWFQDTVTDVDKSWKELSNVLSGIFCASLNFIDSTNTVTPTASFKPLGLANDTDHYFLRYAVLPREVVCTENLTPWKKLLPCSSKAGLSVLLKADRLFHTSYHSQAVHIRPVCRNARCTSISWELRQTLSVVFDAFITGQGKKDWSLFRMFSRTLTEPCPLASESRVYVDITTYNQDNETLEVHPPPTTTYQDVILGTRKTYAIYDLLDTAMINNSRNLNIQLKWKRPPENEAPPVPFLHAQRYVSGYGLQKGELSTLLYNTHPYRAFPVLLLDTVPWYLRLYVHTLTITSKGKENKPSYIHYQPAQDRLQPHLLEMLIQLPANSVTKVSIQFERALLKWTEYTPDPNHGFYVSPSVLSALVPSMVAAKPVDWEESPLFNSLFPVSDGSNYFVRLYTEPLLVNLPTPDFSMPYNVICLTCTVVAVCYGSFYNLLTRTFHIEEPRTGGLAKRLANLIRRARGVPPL
UniProt Q8IWS0: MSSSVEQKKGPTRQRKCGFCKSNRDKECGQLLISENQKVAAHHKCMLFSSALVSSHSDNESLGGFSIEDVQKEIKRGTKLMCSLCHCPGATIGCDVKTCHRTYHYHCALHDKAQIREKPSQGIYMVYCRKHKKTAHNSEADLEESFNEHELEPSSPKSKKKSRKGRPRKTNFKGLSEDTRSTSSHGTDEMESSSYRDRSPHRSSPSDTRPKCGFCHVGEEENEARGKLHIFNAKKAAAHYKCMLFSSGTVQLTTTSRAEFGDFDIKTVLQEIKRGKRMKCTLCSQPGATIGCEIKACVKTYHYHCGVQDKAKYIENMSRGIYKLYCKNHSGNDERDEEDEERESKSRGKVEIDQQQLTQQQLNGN
UniProt O43175: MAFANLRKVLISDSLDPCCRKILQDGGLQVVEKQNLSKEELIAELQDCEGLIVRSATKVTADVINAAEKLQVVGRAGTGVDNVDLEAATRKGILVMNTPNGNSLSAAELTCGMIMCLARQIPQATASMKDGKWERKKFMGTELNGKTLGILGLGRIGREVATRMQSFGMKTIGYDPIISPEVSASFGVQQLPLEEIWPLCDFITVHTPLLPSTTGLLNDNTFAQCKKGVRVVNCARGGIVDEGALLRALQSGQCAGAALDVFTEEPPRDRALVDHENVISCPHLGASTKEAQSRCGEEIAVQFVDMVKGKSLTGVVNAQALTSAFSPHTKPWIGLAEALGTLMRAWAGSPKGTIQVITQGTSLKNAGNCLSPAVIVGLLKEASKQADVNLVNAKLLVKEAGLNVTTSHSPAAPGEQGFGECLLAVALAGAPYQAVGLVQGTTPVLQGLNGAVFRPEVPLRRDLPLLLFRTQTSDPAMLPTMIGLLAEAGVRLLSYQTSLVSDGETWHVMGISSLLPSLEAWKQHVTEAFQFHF
UniProt Q7RTV0, whole entry, looked up: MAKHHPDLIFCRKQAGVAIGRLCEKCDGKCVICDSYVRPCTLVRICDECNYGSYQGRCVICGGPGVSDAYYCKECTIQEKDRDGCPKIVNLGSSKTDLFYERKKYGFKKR
UniProt Q6PCE3: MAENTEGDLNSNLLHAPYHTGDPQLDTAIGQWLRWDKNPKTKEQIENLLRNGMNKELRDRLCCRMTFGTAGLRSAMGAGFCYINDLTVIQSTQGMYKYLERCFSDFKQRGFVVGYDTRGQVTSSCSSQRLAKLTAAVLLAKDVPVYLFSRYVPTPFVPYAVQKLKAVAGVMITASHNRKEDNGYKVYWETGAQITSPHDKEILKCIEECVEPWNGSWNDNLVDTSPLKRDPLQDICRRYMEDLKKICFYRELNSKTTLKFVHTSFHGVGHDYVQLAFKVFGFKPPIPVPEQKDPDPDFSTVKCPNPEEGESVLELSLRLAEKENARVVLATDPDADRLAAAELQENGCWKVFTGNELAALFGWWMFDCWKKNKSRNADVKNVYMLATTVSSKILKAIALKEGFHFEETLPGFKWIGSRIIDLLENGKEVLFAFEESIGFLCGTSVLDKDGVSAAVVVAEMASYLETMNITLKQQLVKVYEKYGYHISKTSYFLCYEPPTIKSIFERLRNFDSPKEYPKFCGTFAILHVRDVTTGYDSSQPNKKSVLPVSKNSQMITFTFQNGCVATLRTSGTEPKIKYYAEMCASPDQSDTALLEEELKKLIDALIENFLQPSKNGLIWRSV
UniProt P00558: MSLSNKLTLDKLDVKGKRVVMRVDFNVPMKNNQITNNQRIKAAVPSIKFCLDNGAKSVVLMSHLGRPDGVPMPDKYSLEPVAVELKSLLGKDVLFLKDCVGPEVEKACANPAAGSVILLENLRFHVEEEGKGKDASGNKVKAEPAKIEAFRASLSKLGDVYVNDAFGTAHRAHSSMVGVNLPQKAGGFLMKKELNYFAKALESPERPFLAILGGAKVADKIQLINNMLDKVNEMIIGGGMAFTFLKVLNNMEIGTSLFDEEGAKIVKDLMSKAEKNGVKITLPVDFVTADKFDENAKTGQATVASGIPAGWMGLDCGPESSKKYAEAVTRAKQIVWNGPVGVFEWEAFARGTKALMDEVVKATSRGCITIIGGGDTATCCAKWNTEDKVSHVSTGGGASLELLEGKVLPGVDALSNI
UniProt O43189: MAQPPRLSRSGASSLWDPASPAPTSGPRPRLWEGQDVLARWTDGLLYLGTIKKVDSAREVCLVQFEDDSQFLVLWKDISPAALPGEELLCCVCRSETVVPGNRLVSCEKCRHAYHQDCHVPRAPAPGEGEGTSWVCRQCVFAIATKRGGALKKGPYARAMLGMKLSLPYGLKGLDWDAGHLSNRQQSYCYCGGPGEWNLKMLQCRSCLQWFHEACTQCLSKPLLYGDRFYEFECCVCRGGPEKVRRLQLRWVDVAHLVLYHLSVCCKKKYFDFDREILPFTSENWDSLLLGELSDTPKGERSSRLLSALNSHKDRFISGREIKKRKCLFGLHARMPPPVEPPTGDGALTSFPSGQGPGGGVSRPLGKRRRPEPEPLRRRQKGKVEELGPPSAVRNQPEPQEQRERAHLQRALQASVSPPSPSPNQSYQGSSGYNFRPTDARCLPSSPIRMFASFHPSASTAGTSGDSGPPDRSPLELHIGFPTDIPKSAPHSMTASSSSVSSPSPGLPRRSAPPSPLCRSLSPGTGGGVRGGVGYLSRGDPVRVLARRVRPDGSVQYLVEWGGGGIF
UniProt Q9UIL8: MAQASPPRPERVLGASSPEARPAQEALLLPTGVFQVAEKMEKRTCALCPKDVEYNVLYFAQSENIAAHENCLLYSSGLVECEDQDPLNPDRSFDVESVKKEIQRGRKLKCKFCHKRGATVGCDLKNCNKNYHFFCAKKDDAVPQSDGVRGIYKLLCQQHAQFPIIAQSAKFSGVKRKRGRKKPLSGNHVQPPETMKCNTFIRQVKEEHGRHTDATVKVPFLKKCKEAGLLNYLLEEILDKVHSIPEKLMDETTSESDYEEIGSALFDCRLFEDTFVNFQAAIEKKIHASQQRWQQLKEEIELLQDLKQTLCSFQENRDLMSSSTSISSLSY
UniProt Q8WUB8: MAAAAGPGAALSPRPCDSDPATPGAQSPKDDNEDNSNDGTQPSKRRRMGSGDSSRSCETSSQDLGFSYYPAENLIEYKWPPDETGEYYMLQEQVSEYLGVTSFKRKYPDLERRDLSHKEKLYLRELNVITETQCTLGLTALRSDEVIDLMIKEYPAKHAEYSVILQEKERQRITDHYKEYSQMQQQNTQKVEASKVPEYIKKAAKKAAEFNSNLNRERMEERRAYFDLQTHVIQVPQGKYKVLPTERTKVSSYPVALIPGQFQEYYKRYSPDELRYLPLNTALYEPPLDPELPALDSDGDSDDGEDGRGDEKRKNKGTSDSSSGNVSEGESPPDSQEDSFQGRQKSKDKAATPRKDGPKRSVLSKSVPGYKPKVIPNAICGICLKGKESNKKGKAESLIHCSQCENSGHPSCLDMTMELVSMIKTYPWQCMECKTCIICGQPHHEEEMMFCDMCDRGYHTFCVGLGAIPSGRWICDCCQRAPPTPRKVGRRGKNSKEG
UniProt Q9BRX2, whole entry, looked up: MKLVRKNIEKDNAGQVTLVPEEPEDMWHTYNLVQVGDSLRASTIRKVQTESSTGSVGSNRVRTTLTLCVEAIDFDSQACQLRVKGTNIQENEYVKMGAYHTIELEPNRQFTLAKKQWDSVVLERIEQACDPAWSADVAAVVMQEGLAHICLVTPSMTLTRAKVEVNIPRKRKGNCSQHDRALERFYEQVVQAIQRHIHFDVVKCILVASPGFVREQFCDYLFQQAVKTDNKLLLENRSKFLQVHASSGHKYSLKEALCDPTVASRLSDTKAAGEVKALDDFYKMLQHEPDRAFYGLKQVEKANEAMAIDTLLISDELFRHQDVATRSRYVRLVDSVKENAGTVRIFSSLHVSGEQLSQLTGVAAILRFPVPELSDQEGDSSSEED

Compound: CC1Cc2ccccc2N1C(=O)C1CCCN(C1)C(=O)CCl (mixture of isomers) [TRIM25 ligand 11 (diastereomer mixture)]
Test: probe-labelled cysteine peptide fold change vs DMSO (competition) (log2 fold change); higher = less target engagement (more negative = stronger competition)
Details: THP-1, incubation time: 4 h
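Also: competitive chemoproteomic profiling in live THP-1 cells with an iodoacetamide desthiobiotin (IA-DTB) probe, comparing probe-labelled peptide intensities in compound-treated cells against DMSO-treated controls.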

Target | probe-labelled cysteine peptide fold change (10 µM) | probe-labelled cysteine peptide fold change (50 µM)
PDXP_Q96GD0_91_AEQLFSSALCAAR (UniProt Q96GD0) | -0.043 | 0.0581
PIGT_Q969N2_272_TLTEPCPLASESR (UniProt Q969N2) | 0.091 | -0.0616
PHF6_Q8IWS0_85_LMCSLCHCPGATIGCDVK (UniProt Q8IWS0) | 0.176 | 0.256
PHGDH_O43175_295_CGEEIAVQFVDMVK (UniProt O43175) | -0.0517 | -0.147
PHF5A_Q7RTV0_46_ICDECNYGSYQGR (UniProt Q7RTV0) | 0.00533 | -0.0473
PGM2L1_Q6PCE3_303_CPNPEEGESVLELSLR (UniProt Q6PCE3) | 0.0542 | -0.119
PGK1_P00558_379+380_GCITIIGGGDTATCCAK (UniProt P00558) | 0.102 | 0.198
PHF1_O43189_139_QCVFAIATK (UniProt O43189) | 0.0808 | 0.0537
PHF11_Q9UIL8_135_NYHFFCAK (UniProt Q9UIL8) | -0.0148 | 0.156
PELP1_Q8IZL8_191_DISMNHLPGLLTSLLGLRPECEQSALEGMK (UniProt Q8IZL8) | -0.0195 | -0.128
PHF10_Q8WUB8_451_TCIICGQPHHEEEMMFCDMCDR (UniProt Q8WUB8) | -0.0635 | 0.087
PHIP_Q8WWQ0_28_FLEDGPCQQAAQVLIR (UniProt Q8WWQ0) | -0.0249 | -0.00825
PECAM1_P16284_476_DNPTEDVEYQCVADNCHSHAK (UniProt P16284) | -0.0513 | -0.167
PELO_Q9BRX2_175_KGNCSQHDR (UniProt Q9BRX2) | 0.179 | -0.108

Two records picked at random from the list so far, as already listed:
Target | probe-labelled cysteine peptide fold change (10 µM) | probe-labelled cysteine peptide fold change (50 µM)
PHF11_Q9UIL8_135_NYHFFCAK (UniProt Q9UIL8) | -0.0148 | 0.156
PGK1_P00558_379+380_GCITIIGGGDTATCCAK (UniProt P00558) | 0.102 | 0.198
